Reference: PubChem BioAssay AID1508597 (Cure First, 2020)
This is an unselected part of the about 2,100 reagents, under one of the conditions tested. 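Calls flag viability under 80% in either arm, not effects specific to rucaparib; the reference for percent is not stated.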 A reagent listed more than once was tested more than once; the source does not tell the runs apart. No sequences are given here. The record does not give: the 100% reference.

Assay: 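Genes whose silencing sensitises or protects ovarian cancer cells against rucaparib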 (primary screen)
Cell system: human ovarian carcinoma lines grown from tumours: OCI-P5x (papillary serous) and OCI-C5x (clear cell)
Reagents: siRNA pool against human genes, 1.25 pmol siRNA per well
Timing: 72 h or 96 h, depending on the cell culture
Conditions: rucaparib 20 µM (about IC30) or vehicle, present until read-out
Rucaparib or vehicle: Rucaparib
Cell line: OCI-P5x (serous)
Measurement: 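Luminescent ATP-based viability assay read 72 or 96 h after transfection, depending on culture, given as normalised percent viability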
Reading the numbers: viability, normalised: higher = more viable cells remaining
Active means: 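a well counts as a hit if its normalised viability is under 80 percent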
Meaning of the calls: active = viability under 80%; inactive = viability 80% or more

| gene | technical replicate | viability, normalised (%) | outcome |
| --- | --- | --- | --- |
| NOTCH1 | 1 | 45.7 | active |
| NOTCH1 | 2 | 61.5 | active |
| NOTCH1 | 3 | 51.9 | active |
| SMAD4 | 1 | 50.6 | active |
| SMAD4 | 2 | 51.5 | active |
| SMAD4 | 3 | 47.8 | active |
| ZC3HAV1 | 1 | 96.7 | inactive |
| ZC3HAV1 | 2 | 74 | active |
| ZC3HAV1 | 3 | 78.3 | active |
| TCF7L1 | 1 | 69.1 | active |
| TCF7L1 | 2 | 70.8 | active |
| TCF7L1 | 3 | 57.8 | active |
| RIPK4 | 1 | 84.4 | inactive |
| RIPK4 | 2 | 89.8 | inactive |
| RIPK4 | 3 | 74 | active |
| CRADD | 1 | 72.6 | active |
| CRADD | 2 | 79.8 | active |
| CRADD | 3 | 82.8 | inactive |
| PDE7A | 1 | 51.2 | active |
| PDE7A | 2 | 51.9 | active |
| PDE7A | 3 | 59 | active |
| DGKE | 1 | 96.3 | inactive |
| DGKE | 2 | 102 | inactive |
| DGKE | 3 | 90.7 | inactive |
| CDX4 | 1 | 65.9 | active |
| CDX4 | 2 | 68 | active |
| CDX4 | 3 | 55.7 | active |
| SNCA | 1 | 49.1 | active |
| SNCA | 2 | 56.9 | active |
| SNCA | 3 | 54.6 | active |
| MSH2 | 1 | 50.9 | active |
| MSH2 | 1 | 73.6 | active |
| MSH2 | 2 | 49.8 | active |
| MSH2 | 2 | 69.2 | active |
| MSH2 | 3 | 63.9 | active |
| MSH2 | 3 | 73.5 | active |
| APEX2 | 1 | 113 | inactive |
| APEX2 | 2 | 106 | inactive |
| APEX2 | 3 | 96.8 | inactive |
| PCDHB6 | 1 | 60.9 | active |
| PCDHB6 | 2 | 63.5 | active |
| PCDHB6 | 3 | 67.1 | active |
| TEAD4 | 1 | 68.6 | active |
| TEAD4 | 2 | 67 | active |
| TEAD4 | 3 | 62.3 | active |
| MUTYH | 1 | 62.3 | active |
| MUTYH | 2 | 86.7 | inactive |
| MUTYH | 3 | 81.2 | inactive |
| PARP3 | 1 | 43.4 | active |
| PARP3 | 1 | 55.6 | active |
| PARP3 | 2 | 59.9 | active |
| PARP3 | 2 | 45 | active |
| PARP3 | 3 | 39 | active |
| PARP3 | 3 | 49.1 | active |
| CLDN19 | 1 | 49.5 | active |
| CLDN19 | 2 | 71 | active |
| CLDN19 | 3 | 56.7 | active |
| CTPS2 | 1 | 87 | inactive |
| CTPS2 | 2 | 106 | inactive |
| CTPS2 | 3 | 109 | inactive |
| MSH3 | 1 | 92.2 | inactive |
| MSH3 | 2 | 84.7 | inactive |
| MSH3 | 3 | 101 | inactive |
| PRP4K | 1 | 122 | inactive |
| PRP4K | 2 | 118 | inactive |
| PRP4K | 3 | 97.8 | inactive |
| MAST1 | 1 | 104 | inactive |
| MAST1 | 2 | 99.1 | inactive |
| MAST1 | 3 | 88.2 | inactive |
| GEMIN4 | 1 | 82.6 | inactive |
| GEMIN4 | 2 | 73 | active |
| GEMIN4 | 3 | 80.8 | inactive |
| SUPT6H | 1 | 25.7 | active |
| SUPT6H | 2 | 26.7 | active |
| SUPT6H | 3 | 27.4 | active |
